# In patent US10011571B2, “Preparation method for aromatic heterocyclic compound used as selective JAK3 and/or JAK1 kinase inhibitor and application of aromatic heterocyclic compound” (SHENZHEN CHIPSCREEN BIOSCIENCES, LTD., priority 2014, dated 2018):
# Chains of the proteins cited; added tags and fusions are not shown. Lines headed by an entry give the natural chain unless they say otherwise; changes in a name come on top.
# UniProt P52333: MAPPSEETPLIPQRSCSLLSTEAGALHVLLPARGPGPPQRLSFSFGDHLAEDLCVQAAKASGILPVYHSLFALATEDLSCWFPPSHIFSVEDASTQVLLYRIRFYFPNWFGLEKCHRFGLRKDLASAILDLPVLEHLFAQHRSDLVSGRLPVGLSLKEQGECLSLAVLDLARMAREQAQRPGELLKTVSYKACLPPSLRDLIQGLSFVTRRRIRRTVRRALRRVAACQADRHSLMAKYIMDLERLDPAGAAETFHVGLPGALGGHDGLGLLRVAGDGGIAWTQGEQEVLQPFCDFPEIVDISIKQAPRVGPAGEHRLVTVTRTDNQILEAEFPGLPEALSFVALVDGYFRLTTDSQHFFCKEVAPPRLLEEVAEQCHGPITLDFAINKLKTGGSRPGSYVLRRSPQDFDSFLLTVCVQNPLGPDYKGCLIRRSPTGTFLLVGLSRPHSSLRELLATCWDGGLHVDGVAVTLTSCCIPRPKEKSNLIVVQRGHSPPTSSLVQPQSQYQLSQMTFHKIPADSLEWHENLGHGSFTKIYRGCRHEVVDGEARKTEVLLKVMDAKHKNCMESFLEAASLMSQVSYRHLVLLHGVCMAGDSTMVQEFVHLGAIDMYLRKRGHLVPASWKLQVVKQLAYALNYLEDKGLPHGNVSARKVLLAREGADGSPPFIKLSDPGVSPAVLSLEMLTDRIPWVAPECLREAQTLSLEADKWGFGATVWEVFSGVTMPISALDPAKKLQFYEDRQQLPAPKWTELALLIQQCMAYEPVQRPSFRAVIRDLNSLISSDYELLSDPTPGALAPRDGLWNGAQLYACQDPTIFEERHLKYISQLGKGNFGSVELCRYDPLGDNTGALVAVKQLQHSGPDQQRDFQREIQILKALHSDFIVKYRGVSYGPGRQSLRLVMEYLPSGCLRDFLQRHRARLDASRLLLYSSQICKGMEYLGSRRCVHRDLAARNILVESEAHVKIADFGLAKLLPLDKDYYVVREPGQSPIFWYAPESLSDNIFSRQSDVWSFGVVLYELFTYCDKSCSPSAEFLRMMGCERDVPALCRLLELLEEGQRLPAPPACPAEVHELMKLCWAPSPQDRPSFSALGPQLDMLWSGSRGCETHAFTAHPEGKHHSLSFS
# UniProt P23458: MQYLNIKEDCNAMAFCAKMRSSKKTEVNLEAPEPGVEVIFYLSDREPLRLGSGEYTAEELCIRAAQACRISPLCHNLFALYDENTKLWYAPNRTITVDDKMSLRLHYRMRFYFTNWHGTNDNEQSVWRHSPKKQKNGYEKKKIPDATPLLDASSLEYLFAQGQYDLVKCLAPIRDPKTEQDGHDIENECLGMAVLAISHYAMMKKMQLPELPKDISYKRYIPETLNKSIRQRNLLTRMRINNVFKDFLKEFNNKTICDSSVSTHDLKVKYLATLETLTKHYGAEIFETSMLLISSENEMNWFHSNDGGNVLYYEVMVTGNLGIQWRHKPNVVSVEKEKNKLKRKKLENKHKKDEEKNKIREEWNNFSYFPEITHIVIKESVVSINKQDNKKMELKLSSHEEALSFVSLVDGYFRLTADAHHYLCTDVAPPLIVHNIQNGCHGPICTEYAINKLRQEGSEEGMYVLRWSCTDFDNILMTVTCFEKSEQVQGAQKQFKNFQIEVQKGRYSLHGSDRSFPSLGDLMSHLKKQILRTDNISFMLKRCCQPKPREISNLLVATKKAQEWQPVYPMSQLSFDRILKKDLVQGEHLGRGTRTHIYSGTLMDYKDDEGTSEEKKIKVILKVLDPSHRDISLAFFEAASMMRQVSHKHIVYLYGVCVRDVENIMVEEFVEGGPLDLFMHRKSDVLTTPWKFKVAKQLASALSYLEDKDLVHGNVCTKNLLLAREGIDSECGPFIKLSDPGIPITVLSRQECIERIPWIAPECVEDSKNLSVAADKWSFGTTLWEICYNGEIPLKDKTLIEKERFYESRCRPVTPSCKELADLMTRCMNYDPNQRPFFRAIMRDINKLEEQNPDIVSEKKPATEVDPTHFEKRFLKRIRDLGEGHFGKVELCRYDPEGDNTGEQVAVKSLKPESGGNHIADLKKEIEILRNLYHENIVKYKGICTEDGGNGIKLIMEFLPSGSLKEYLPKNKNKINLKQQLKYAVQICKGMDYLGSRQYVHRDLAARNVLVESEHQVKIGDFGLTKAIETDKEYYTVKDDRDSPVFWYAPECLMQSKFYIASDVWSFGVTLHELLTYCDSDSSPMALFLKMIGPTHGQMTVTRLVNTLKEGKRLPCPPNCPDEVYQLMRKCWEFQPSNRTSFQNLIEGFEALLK
# For at least one compound, name, drawing or mass did not settle the structure.
# Legend:
# JAK3 = JAK3 (Homo sapiens (Human), UniProt P52333); experiment: Z'-LYTE enzymatic activity detection, JAK3; assay type: biochemical; details: test compound 30 nM
# Procedure: (§1) The basic principle of in vitro enzymatic activity assay is based on the difference between the intensities of fluorescence signals generated at different wavelengths (445 nm and 520 nm) from the phosphorylated substrate and non-phosphorylated substrate, in which the specific fluorescence-labeled substrate is phosphorylated by the kinase. When different test compounds are added, the inhibition of kinase activity is represented as the different degrees of substrate phosphorylation, and thus as the different intensities of fluorescence signal, based on which the inhibitory activity of the compound on the kinase can be calculated. Basic detection principle is illustrated in FIG. 1. […]
# (§2) (5) The fluorescence signal in each well is detected by an Ascent Fluoroskan FL reader (Thermo Labsystems) at an excitation wavelength of 400 nm, and emission wavelengths of 445 nm and 520 nm. The proportion of substrate phosphorylation is obtained by reference to the fluorescence signal intensity C445/F520.
# (§3) (6) The enzymatic inhibitory rate of the test compound can be calculated based on the following equation: Inhibitory rate (%)=1−the proportion of substrate phosphorylation in the detection well/the proportion of substrate phosphorylation in the solvent control well. […]
# JAK1 = JAK1 (Homo sapiens (Human), UniProt P23458); experiment: Z'-LYTE enzymatic activity detection, JAK1; assay type: biochemical; details: test compound 300 nM
# Procedure: as §1, §2, §3
smiles,measurement,setting,value
"C=CC(=O)N(C)c1cc(Nc2ncc(C)c(NCCCNC(=O)c3ccc(F)cc3)n2)ccc1F [Example 19, 4-fluoro-N-(3-(2-(4-fluoro-3-(N-methylacrylamido)phenylamino)-5-methylpyrimidinyl-4-amino)propyl)benzamide]",JAK3 RV (ratio between the inhibitory rate of the test compound and that of Xeljanz),JAK3,0.68
same,JAK1 RV (ratio between the inhibitory rate of the test compound and that of Xeljanz),JAK1,0.46
